Assay results as given in PubChem BioAssay AID200 (DTP/NCI, 2004).
The list shows only some results of the screen, not a fair sample: it is rich in T/C values a quarter to a half above the control, in often repeated tests (any T/C) and in doses without a T/C. Other doses and runs of a compound stand elsewhere. T/C is the treated group as % of the vehicle group. Some entries give survivors of the animals treated and no T/C: the source files T/C as zero there, which appears to mark a toxic dose or a test without result, not a measured value. Some doses without a T/C left all or most animals alive at the check, yet need not have been tolerated: the source hardly ever lists a survival T/C far under the control, and the zero likely stands for such cases as well. Survivors were counted at the toxicity check, usually on the fifth day, unless a day is given; later deaths do not show. Schedule codes are those of the source, taken here to give the interval after Q, in days (D) or hours (H), and the number of doses after X. Some entries hold several experiments; the results are listed from low to high. Where survival is the endpoint, this PubChem deposit counts one and a half times the control or more as active, and values a quarter to a half above the control carry no call in these data; other NCI protocols may use other cut-offs. Some T/C values are followed by the survivors on the day toxicity was checked, most often the fifth; where none is given, no animal had died by that day.

System: B6C3F1 mice, B16 melanoma ip, median survival T/C
Assay: NCI In Vivo Anticancer Drug Screen. Data for tumor model B16 Melanoma (intraperitoneal) in B6C3F1 mice
Settings: T/C endpoint: median survival time, higher T/C = longer survival
Procedure: The antitumor activity of compounds was measured in mice bearing transplantable tumors. Survival or tumor size were measured and the results are expressed as the measurement made in the treated group (T) divided by the measurement made in the vehicle treated control group (C). The tumor model used in this assay is B16 Melanoma (intraperitoneal) in B6C3F1 mice

[1] = dose: 8.0 mg/kg/injection, schedule: Q01DX009 (ip), vehicle: saline + alcohol
[2] = dose: 16.0 mg/kg/injection, schedule: Q01DX009 (ip), vehicle: saline + alcohol
[3] = dose: 50.0 mg/kg/injection, schedule: Q01DX009 (ip), vehicle: other
[4] = dose: 100.0 mg/kg/injection, schedule: Q01DX009 (ip), vehicle: other

For `CC(=O)OC1C(O)C(C)OC(OC2C(OC(=O)C3CCC4C(C3)OC3(CC(OC(=O)/C=C/c5ccccc5)C(C)CO3)C43CO3)OC(C)C(O)C2OC(C)=O)C1O` (centres undefined), the T/C (dose: 1.5 mg/kg/injection, schedule: Q03HX024 (ip), vehicle: other) was 130 % of control [7 of 9 alive], the T/C (dose: 1.8 mg/kg/injection, schedule: Q01DX005 (ip), vehicle: other) was 133 % of control and the T/C (dose: 2.0 mg/kg/injection, schedule: Q01DX009 (ip), vehicle: other) was 130 % of control [9 of 10 alive]. The T/C (dose: 2.0 mg/kg/injection, schedule: Q01DX009 (ip), vehicle: saline + alcohol) was 129 [9 of 10 alive], 131, 140 % of control, the T/C (dose: 2.0 mg/kg/injection, schedule: Q01DX009 (ip), vehicle: saline) was 147 % of control and the T/C (dose: 2.0 mg/kg/injection, schedule: Q02DX005 (ip), vehicle: saline + Tween-80 + alcohol) was 147 % of control. The T/C (dose: 2.0 mg/kg/injection, schedule: Q02DX005 (ip), vehicle: saline + alcohol) was 133 % of control, the survivor count (dose: 3.0 mg/kg/injection, schedule: Q03HX024 (ip), vehicle: other) was 7 of 10 and the T/C (dose: 3.0 mg/kg/injection, schedule: Q04DX003 (ip), vehicle: saline + Tween-80 + alcohol) was 127 % of control [7 of 8 alive]. For the same molecule, the T/C (dose: 3.0 mg/kg/injection, schedule: Q04DX003 (ip), vehicle: saline + alcohol) was 129 % of control, the T/C (dose: 3.6 mg/kg/injection, schedule: Q01DX005 (ip), vehicle: other) was 139 % of control and the T/C (dose: 4.0 mg/kg/injection, schedule: Q01DX009 (ip), vehicle: other) was 144 % of control. The T/C (dose: 4.0 mg/kg/injection, schedule: Q01DX009 (ip), vehicle: saline + alcohol) was 138, 145, 162, 163 % of control, the T/C (dose: 4.0 mg/kg/injection, schedule: Q02DX005 (ip), vehicle: saline + Tween-80 + alcohol) was 147 % of control and the T/C (dose: 4.0 mg/kg/injection, schedule: Q02DX005 (ip), vehicle: saline + alcohol) was 133 % of control. For the same molecule, the survivor count (dose: 4.5 mg/kg/injection, schedule: Q03HX008 (ip), vehicle: other) was 3 of 10, the survivor count (dose: 6.0 mg/kg/injection, schedule: Q03HX024 (ip), vehicle: other) was 2 of 10 and the T/C (dose: 6.0 mg/kg/injection, schedule: Q04DX003 (ip), vehicle: other) was 135 % of control. For the same molecule, the T/C (dose: 6.0 mg/kg/injection, schedule: Q04DX003 (ip), vehicle: saline + Tween-80 + alcohol) was 143 % of control, the T/C (dose: 6.0 mg/kg/injection, schedule: Q04DX003 (ip), vehicle: saline + alcohol) was 127 % of control and the T/C (dose: 7.2 mg/kg/injection, schedule: Q01DX005 (ip), vehicle: other) was 148 % of control. The T/C [1] was 161, 170, 174 % of control, the survivor count [1] was 10 of 10 and the T/C (dose: 8.0 mg/kg/injection, schedule: Q02DX005 (ip), vehicle: saline + alcohol) was 146 % of control. The survivor count (dose: 9.0 mg/kg/injection, schedule: Q03HX008 (ip), vehicle: other) was 0 of 10, the survivor count (dose: 12.0 mg/kg/injection, schedule: Q03HX024 (ip), vehicle: other) was 0 of 10 and the T/C (dose: 12.0 mg/kg/injection, schedule: Q04DX003 (ip), vehicle: other) was 135 % of control. The T/C (dose: 12.0 mg/kg/injection, schedule: Q04DX003 (ip), vehicle: saline + Tween-80 + alcohol) was 137 % of control, the T/C [2] was 144 [9 of 10 alive], 170, 190 % of control and the survivor count [2] was 10 of 10. The T/C (dose: 16.0 mg/kg/injection, schedule: Q01DX009 (ip), vehicle: saline) was 142 % of control, the survivor count (dose: 18.0 mg/kg/injection, schedule: Q03HX008 (ip), vehicle: other) was 0 of 10 and the T/C (dose: 24.0 mg/kg/injection, schedule: Q04DX003 (ip), vehicle: other) was 142 % of control. For the same molecule, the T/C (dose: 24.0 mg/kg/injection, schedule: Q04DX003 (ip), vehicle: saline + Tween-80 + alcohol) was 138 % of control, the T/C (dose: 24.0 mg/kg/injection, schedule: Q04DX003 (ip), vehicle: saline + alcohol) was 127 % of control and the survivor count (dose: 28.8 mg/kg/injection, schedule: Q01DX005 (ip), vehicle: other) was 9 of 10. For the same molecule, the survivor count (dose: 28.8 mg/kg/injection, schedule: Q01DX005 (iv), vehicle: other) was 0 of 10, the survivor count (dose: 32.0 mg/kg/injection, schedule: Q01DX009 (ip), vehicle: distilled water + alcohol) was 6 of 10 and the survivor count (dose: 32.0 mg/kg/injection, schedule: Q01DX009 (ip), vehicle: other) was 10 of 10. The survivor count (dose: 32.0 mg/kg/injection, schedule: Q01DX009 (ip), vehicle: saline + alcohol) was 10 of 10 and 8 of 8, the survivor count (dose: 32.0 mg/kg/injection, schedule: Q02DX005 (ip), vehicle: saline + Tween-80 + alcohol) was 7 of 7 and the survivor count (dose: 36.0 mg/kg/injection, schedule: Q01DX001 (iv), vehicle: other) was 3 of 10. For the same molecule, the survivor count (dose: 36.0 mg/kg/injection, schedule: Q03HX008 (ip), vehicle: other) was 0 of 10, the T/C (dose: 48.0 mg/kg/injection, schedule: Q04DX003 (ip), vehicle: other) was 148 % of control and the T/C (dose: 48.0 mg/kg/injection, schedule: Q04DX003 (ip), vehicle: saline + Tween-80 + alcohol) was 132 % of control. For the same molecule, the T/C (dose: 48.0 mg/kg/injection, schedule: Q04DX003 (ip), vehicle: saline + alcohol) was 131 % of control [9 of 10 alive], the survivor count (dose: 57.6 mg/kg/injection, schedule: Q01DX005 (ip), vehicle: other) was 8 of 10 and the survivor count (dose: 64.0 mg/kg/injection, schedule: Q01DX009 (oral), vehicle: other) was 1 of 10. The T/C (dose: 64.0 mg/kg/injection, schedule: Q01DX009 (sc), vehicle: other) was 128 % of control, the survivor count (dose: 64.0 mg/kg/injection, schedule: Q02DX005 (ip), vehicle: saline + Tween-80 + alcohol) was 7 of 7 and the survivor count (dose: 64.0 mg/kg/injection, schedule: Q02DX005 (ip), vehicle: saline + alcohol) was 5 of 10. For the same molecule, the T/C (dose: 72.0 mg/kg/injection, schedule: Q01DX001 (ip), vehicle: other) was 129 % of control, the survivor count (dose: 72.0 mg/kg/injection, schedule: Q01DX001 (iv), vehicle: other) was 0 of 10 and the T/C (dose: 96.0 mg/kg/injection, schedule: Q04DX003 (ip), vehicle: other) was 141 % of control [8 of 9 alive]. The survivor count (dose: 96.0 mg/kg/injection, schedule: Q04DX003 (ip), vehicle: saline + alcohol) was 2 of 10, the survivor count (dose: 128.0 mg/kg/injection, schedule: Q01DX009 (oral), vehicle: other) was 0 of 10 and the survivor count (dose: 144.0 mg/kg/injection, schedule: Q01DX001 (ip), vehicle: other) was 0 of 10. The survivor count (dose: 144.0 mg/kg/injection, schedule: Q01DX001 (iv), vehicle: other) was 0 of 10 and the survivor count (dose: 288.0 mg/kg/injection, schedule: Q01DX001 (ip), vehicle: other) was 0 of 10.

`CCC(C)Nc1ccc(N)cc1` (centres undefined) was tested, and the survivor count (dose: 24.0 mg/kg/injection, schedule: Q01DX009 (ip), vehicle: Klucel (hydroxypropylcellulose) (HPC)) was 5 of 10.

In the case of `Cc1ccc(C(=O)OC(C(=O)O)C(OC(=O)c2ccc(C)cc2)C(=O)O)cc1` (centres undefined) (tested in a mixture with another compound), the survivor count [3] was 4 of 8 and the survivor count [4] was 0 of 8.

`CC(=O)CC(=O)CCC(=O)O` was tested, and the survivor count (dose: 200.0 mg/kg/injection, schedule: Q01DX009 (ip), vehicle: saline) was 10 of 10 and the survivor count (dose: 400.0 mg/kg/injection, schedule: Q01DX009 (ip), vehicle: saline) was 8 of 10.

For `CC(=O)Nc1ccc(N=Nc2c(C)nn(C(=N)N)c2C)cc1`, the survivor count (dose: 100.0 mg/kg/injection, schedule: Q01DX009 (ip), vehicle: saline) was 4 of 10.

`O=C(Nc1ccccc1CCl)Nc1ccccc1CCl` was tested, and the survivor count (dose: 400.0 mg/kg/injection, schedule: Q01DX009 (ip), vehicle: saline with Tween-80) was 7 of 10.

For `CCCn1cc2c3c(cccc31)C1C=C(C)CN(C)C1C2` (centres undefined), the survivor count [3] was 7 of 8 and the survivor count [4] was 0 of 8.

With `Cc1c2cc(Cl)c3ccccc3c2c[n+]2ccccc12` the survivor count (dose: 100.0 mg/kg/injection, schedule: Q01DX009 (ip), vehicle: saline with Tween-80) was 10 of 10.
